Results reported in publication PMC7033719.
No constants are given. Whether binding was seen depends on the method and setting. Binding seen in cells or lysates may run through a third protein. Some binding calls cover weakened binding; strength is not graded here. Tags and fused reporters may be left off the sequences shown.

Chains of the proteins cited; added tags and fusions are not shown.
UniProt P62491: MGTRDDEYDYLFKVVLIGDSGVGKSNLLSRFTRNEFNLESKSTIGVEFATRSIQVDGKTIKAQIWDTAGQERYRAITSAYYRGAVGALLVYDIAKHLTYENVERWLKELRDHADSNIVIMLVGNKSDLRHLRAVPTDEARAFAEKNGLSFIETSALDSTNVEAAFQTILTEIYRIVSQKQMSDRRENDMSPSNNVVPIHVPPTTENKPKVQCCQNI
UniProt P20339: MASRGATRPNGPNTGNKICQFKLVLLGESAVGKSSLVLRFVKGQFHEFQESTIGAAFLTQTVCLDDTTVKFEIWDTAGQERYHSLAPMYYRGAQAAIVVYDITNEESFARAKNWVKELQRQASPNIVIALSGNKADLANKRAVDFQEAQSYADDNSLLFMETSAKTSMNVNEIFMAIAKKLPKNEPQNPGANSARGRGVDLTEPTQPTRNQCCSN
UniProt P51149: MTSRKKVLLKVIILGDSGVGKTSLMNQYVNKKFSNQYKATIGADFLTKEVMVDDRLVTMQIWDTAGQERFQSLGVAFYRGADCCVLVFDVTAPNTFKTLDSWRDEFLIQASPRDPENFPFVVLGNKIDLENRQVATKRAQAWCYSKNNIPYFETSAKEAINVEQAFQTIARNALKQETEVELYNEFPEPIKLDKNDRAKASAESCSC

How the values were obtained:
[1] = biological target: T1, GDE2–GFP (human GDE2 tagged with GFP) (human) (UniProt Q8WTR4); experiment: co-IP; HEK293T cells transiently co-transfected with GDE2–mCh or GDE2–GFP and a tagged Rab; lysed after 24 h in RIPA buffer; 500 μg–1 mg extract incubated with GFP or mCherry Trap beads at 4°C for 1 h; immunoblot
T1 sequence: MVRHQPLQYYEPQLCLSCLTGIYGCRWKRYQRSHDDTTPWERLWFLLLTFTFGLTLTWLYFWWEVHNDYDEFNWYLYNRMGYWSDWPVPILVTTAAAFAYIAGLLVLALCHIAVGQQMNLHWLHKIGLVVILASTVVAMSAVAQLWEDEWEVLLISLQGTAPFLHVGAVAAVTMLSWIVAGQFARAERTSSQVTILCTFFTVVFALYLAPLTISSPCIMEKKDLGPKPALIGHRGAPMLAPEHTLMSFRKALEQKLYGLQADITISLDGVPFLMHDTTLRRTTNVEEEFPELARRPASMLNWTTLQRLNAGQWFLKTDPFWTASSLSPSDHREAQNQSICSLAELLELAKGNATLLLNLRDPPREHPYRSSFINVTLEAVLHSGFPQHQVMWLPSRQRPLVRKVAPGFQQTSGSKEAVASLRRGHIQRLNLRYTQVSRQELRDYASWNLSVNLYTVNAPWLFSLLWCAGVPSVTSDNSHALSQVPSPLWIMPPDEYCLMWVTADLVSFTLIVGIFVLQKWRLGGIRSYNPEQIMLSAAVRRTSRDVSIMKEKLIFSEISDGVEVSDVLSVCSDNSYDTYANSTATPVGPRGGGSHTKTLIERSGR

[2] = biological target: T2, GDE2–mCh (human GDE2 tagged with mCherry) (human) (UniProt Q8WTR4); experiment: as above
T2 sequence: T1 sequence

Substance	binding [1]	binding [2]
Rab11a–mCh (from UniProt P62491 1-216)	binds	–
Rab5a–mCh (from UniProt P20339 1-215)	binds	–
Rab7a–GFP (from UniProt P51149 1-207)	–	binds
